From patent publication US20250161319A1, “USE OF HPK1 INHIBITOR IN TREATMENT OF INTERFERON-RELATED DISEASES” (priority 2022, published 2025)
At least one structure is not confirmed: it was looked up by name or label, or the drawing left a doubt.

Tested on: Feline Infectious Peritonitis
Assay: Animal clinical trial in cats with Feline Infectious Peritonitis
Format: in vivo
From the text: Therefore, the inventors hypothesized that HPK1 inhibitors might have therapeutic effects on Feline Infectious Peritonitis. To validate this hypothesis, the inventors conducted an animal clinical trial. Three animals were included in the experiment, all of them suffered from Feline Infectious Peritonitis, aged between 5-12 months, one was female and the other two were male (Table 4).

[1] = three cats overall, 20 days, 1.5 mg/kg twice a day via injection

## CN1CCC(n2cc(Nc3ncc4cccc(O[C@H]5CC[C@H](N)CC5)c4n3)cn2)CC1 [Compound C1]
Animal No. 1, before treatment Significant ascites
  Fluid in the abdominal and thoracic cavity, After treatment: disappearance
Animal No. 2, before treatment Significant thoracic fluid, small amount of ascites
  Fluid in the abdominal and thoracic cavity, After treatment: disappearance
Animal No. 3, before treatment Significant thoracic fluid, dyspnea
  Fluid in the abdominal and thoracic cavity, After treatment: Less thoracic
[1]
  Feline serum amyloid A: significant decrease
  appetite and body weight: increase
  ascites: disappearance
  mental status: from depressed to active
